This passage reports binding results from US20240301061A1.

In experiment [1] the target is cyno CLDN6 (cyno). In words: flow cytometry on CHOK1 cells expressing cyno CLDN6, MFI(PE).
Experiment [2] has as its target cyno CLDN6 (cyno). The experiment is described as follows: flow cytometry, CHOK1-cyno CLDN6 cells (FIG. 1I).
The target of experiment [3] is cyno CLDN6 (cyno). In words: flow cytometry, CHOK1 stable cells.

Where a chain is given by its changes, count along the chain named. These are yes or no findings as the source states them, for the method shown. Binding can be weak; no strength is given.

B1: BG87P-21 (antibody, V domains shown)
VH: QVQLVQSGAEVKKPGASVKVSCKASGYSFTDYHINWVRQAPGQRLEWMGWIYPGSGYTKYNEKFKGRVTITRDTSASTAYMELSSLRSEDTAVYYCARSGIYHYVSSYYFDHWGKGTTVTVSS
VL: DIQMTQSPSTLSASVGDRVTITCKASQDVGTAVAWYQQKPGKAPKLLIYWASTRHTGVPSRFSGSGSGTEFTLTISSLQPDDFATYYCQQYSSYTFGGGTKVEIK
As for B1, the binding result in the experiment with cyno CLDN6 (cyno) [1] is on record as “binds”.

B2: BG87P-33 (antibody, V domains shown)
VH: EVQLQESGGGLVQPGGSLRLSCAASGYSFTDYHINWVRQAPGKGLEWVSYIYPGSGHTKYNEKFKGRFTISRDTSKNTAYLQMNSLRAEDTAVYYCARSGIYHYVSSYYFDHWGQGTLVTVSS
VL: B1 VL with V29A, T31S
For B2, the binding entry with cyno CLDN6 (cyno) [1] is listed as “binds”.

B3: BG87P-34 (antibody, V domains shown)
VH: B2 VH with T30S, S49G, K76S
VL: B1 VL with T10S, V29A, T31S, E70D, D81E, V102L
For B3, the binding result with cyno CLDN6 (cyno) [2] and in the experiment with cyno CLDN6 (cyno) [1] was “binds” each time.

B4: anti-CLDN6 chimeric BG87P (antibody, V domains shown)
VH: QIQLQQSGPELVKPGASVKISCKASGYSFTDYHINWVKQRPGQGLEWIGWIYPGSGYTKYNEKFKVKATLTVDTSSSTAYMHLTSLTSEDSAVYFCARSGIYHYVSSYYFDHWGQGTTLTVSS
VL: DIVMTQSHTFMSTSVGDRVSITCKASQDVGTAVAWYQQKPGQSPKLLIYWASTRHTGVPDRFTGSGSGTDFTLTISNVQSEDLADYFCQQYSSYTFGGGTKLEIK
Take B4: the binding entry in the experiment with cyno CLDN6 (cyno) [1] was “binds”.

B5: BG87P (antibody, V domains shown)
VH: B4 VH
VL: B4 VL
As for B5, the binding entry with cyno CLDN6 (cyno) [3] is on record as “binds”.
